Test results as given in PubChem BioAssay AID328 (DTP/NCI, 2004).
The list is a part of this screen's results and no random one: it gathers tests that were run many times, whatever their T/C, doses with no T/C, and many T/C values between a quarter and a half above the control. Further doses and runs are listed elsewhere. T/C: endpoint of the treated group in % of that of the vehicle group. Some doses have a count of surviving animals in place of a T/C: the source holds a T/C of zero for them, seemingly a mark for toxic or unscored doses. Some doses without a T/C left all or most animals alive at the check, yet need not have been tolerated: the source hardly ever lists a survival T/C far under the control, and the zero likely stands for such cases as well. Counts of survivors are from the toxicity check (mostly the fifth day) where no day follows; animals may have died later. Schedules are NCI's codes, read here as Q, the interval in days (D) or hours (H), X, the number of doses. Some entries were tested several times; their values stand side by side, smallest first. Where survival is the endpoint, the PubChem record calls one and a half times the control and up active, and a quarter to a half above the control has no call in these data; cut-offs in other NCI protocols can differ. Some T/C values are followed by the survivors on the day toxicity was checked, most often the fifth; where none is given, no animal had died by that day.

System: BDF1 mice, P388 leukemia ip, median survival T/C
Assay: NCI In Vivo Anticancer Drug Screen. Data for tumor model P388 Leukemia (intraperitoneal) in B6D2F1 (BDF1) mice
Settings: T/C endpoint: median survival time, higher T/C = longer survival
Method in brief: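 Read-out is survival of treated animals expressed relative to the vehicle group, as a T/C ratio.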

[1] = dose: 1.25 mg/kg/injection, schedule: Q04DX003 (ip), vehicle: saline
[2] = dose: 50.0 mg/kg/injection, schedule: Q01DX009 (ip), vehicle: saline with Tween-80
[3] = dose: 100.0 mg/kg/injection, schedule: Q01DX009 (ip), vehicle: saline with Tween-80
[4] = dose: 200.0 mg/kg/injection, schedule: Q01DX009 (ip), vehicle: saline with Tween-80

For `CCN1C=C/C(=C\C=C/c2cc[n+](CC)c3ccccc23)c2ccccc21`, the T/C (dose: 0.11 mg/kg/injection, schedule: Q01DX009 (ip), vehicle: saline) was 127 % of control, the T/C (dose: 0.17 mg/kg/injection, schedule: Q01DX009 (ip), vehicle: saline) was 145 % of control and the T/C (dose: 0.2 mg/kg/injection, schedule: Q01DX009 (ip), vehicle: saline) was 145 % of control. For the same compound, the T/C (dose: 0.25 mg/kg/injection, schedule: Q01DX009 (ip), vehicle: saline) was 145 % of control, the T/C (dose: 0.27 mg/kg/injection, schedule: Q04DX003 (ip), vehicle: saline) was 130 % of control and the T/C (dose: 0.38 mg/kg/injection, schedule: Q01DX009 (ip), vehicle: saline) was 145 % of control. For the same compound, the T/C (dose: 0.4 mg/kg/injection, schedule: Q01DX009 (ip), vehicle: saline) was 146 % of control [5 of 6 alive], the T/C (dose: 0.44 mg/kg/injection, schedule: Q04DX003 (ip), vehicle: saline) was 133 and 140 % of control [5 of 6 alive] and the T/C (dose: 0.5 mg/kg/injection, schedule: Q04DX003 (ip), vehicle: saline) was 127 % of control. For the same compound, the survivor count (dose: 0.62 mg/kg/injection, schedule: Q01DX009 (ip), vehicle: saline) was 6 of 6, the T/C (dose: 0.66 mg/kg/injection, schedule: Q04DX003 (ip), vehicle: saline) was 141 % of control and the survivor count (dose: 0.82 mg/kg/injection, schedule: Q04DX003 (ip), vehicle: saline) was 1 of 6. The survivor count (dose: 0.93 mg/kg/injection, schedule: Q01DX009 (ip), vehicle: Klucel (hydroxypropylcellulose) (HPC)) was 6 of 6, the survivor count (dose: 0.93 mg/kg/injection, schedule: Q01DX009 (ip), vehicle: saline) was 1 of 6 and the survivor count (dose: 1.0 mg/kg/injection, schedule: Q01DX009 (ip), vehicle: saline) was 1 of 6. The T/C (dose: 1.0 mg/kg/injection, schedule: Q04DX003 (ip), vehicle: saline) was 127 [5 of 6 alive], 137, 140 % of control [5 of 6 alive], the T/C [1] was 140 % of control and the survivor count [1] was 0 of 6 and 3 of 6. For the same compound, the survivor count (dose: 1.87 mg/kg/injection, schedule: Q04DX003 (ip), vehicle: saline) was 2 of 6 and 4 of 6, the survivor count (dose: 2.0 mg/kg/injection, schedule: Q04DX003 (ip), vehicle: saline) was 3 of 6 and the survivor count (dose: 2.5 mg/kg/injection, schedule: Q04DX003 (ip), vehicle: saline) was 1 of 6. For the same compound, the survivor count (dose: 5.0 mg/kg/injection, schedule: Q04DX003 (ip), vehicle: alcohol) was 4 of 6, the survivor count (dose: 10.0 mg/kg/injection, schedule: Q04DX003 (ip), vehicle: alcohol) was 0 of 6 and the survivor count (dose: 20.0 mg/kg/injection, schedule: Q04DX003 (ip), vehicle: alcohol) was 0 of 6. The T/C (dose: 66.0 micrograms/kg/injection, schedule: Q01DX009 (ip), vehicle: saline) was 125 % of control, the T/C (dose: 100.0 micrograms/kg/injection, schedule: Q01DX009 (ip), vehicle: saline) was 125 % of control and the T/C (dose: 150.0 micrograms/kg/injection, schedule: Q01DX009 (ip), vehicle: saline) was 129 % of control.

In the case of `COc1cc(C=Nc2cc(Cl)c(O)c(Cl)c2)ccc1N(CCCl)CCCl`, the T/C (dose: 3.0 mg/kg/injection, schedule: Q04DX003 (ip), vehicle: saline with Tween-80) is reported as 140 % of control and the T/C (dose: 25.0 mg/kg/injection, schedule: Q04DX003 (ip), vehicle: saline with Tween-80) is reported as 144 % of control.

In the case of `N/C(=N\[N+](=O)[O-])N(CCCCl)N=O`, the T/C (dose: 18.0 mg/kg/injection, schedule: Q01DX009 (ip), vehicle: Klucel (hydroxypropylcellulose) (HPC)) is reported as 128 % of control [9 of 10 alive], the T/C (dose: 37.5 mg/kg/injection, schedule: Q01DX009 (ip), vehicle: other) is reported as 127 % of control and the T/C [2] is reported as 149 % of control. For the same compound, the T/C (dose: 75.0 mg/kg/injection, schedule: Q01DX009 (ip), vehicle: other) was 127 % of control, the T/C (dose: 75.0 mg/kg/injection, schedule: Q01DX009 (ip), vehicle: saline with Tween-80) was 126 % of control and the survivor count [3] was 4 of 6. The survivor count (dose: 150.0 mg/kg/injection, schedule: Q01DX009 (ip), vehicle: other) was 2 of 6, the survivor count [4] was 3 of 6 and the survivor count (dose: 264.0 mg/kg/injection, schedule: Q04DX003 (ip), vehicle: saline sonified) was 6 of 6. For the same compound, the survivor count (dose: 400.0 mg/kg/injection, schedule: Q01DX009 (ip), vehicle: saline with Tween-80) was 0 of 6, the survivor count (dose: 400.0 mg/kg/injection, schedule: Q04DX003 (ip), vehicle: saline sonified) was 5 of 6 and the T/C (dose: 400.0 mg/kg/injection, schedule: Q04DX003 (ip), vehicle: saline with Tween-80) was 131 % of control.

With `O=C1C=C(Cl)C(=O)C(Cl)=C1` the survivor count (dose: 12.0 mg/kg/injection, schedule: Q01DX009 (ip), vehicle: Klucel (hydroxypropylcellulose) (HPC)) was 2 of 6 and the survivor count (dose: 25.0 mg/kg/injection, schedule: Q04DX003 (ip), vehicle: Klucel (hydroxypropylcellulose) (HPC)) was 1 of 6.

`C[C@@H]1CC[C@@]2(NC1)O[C@H]1C[C@H]3[C@@H]4CC=C5C[C@@H](O)CC[C@]5(C)[C@H]4CC[C@]3(C)[C@H]1[C@@H]2C` was tested, and the survivor count [4] was 4 of 6.

`O=C(O)C1CCSS1` (stereo not given) was tested, and the survivor count (dose: 3.12 mg/kg/injection, schedule: Q01DX009 (ip), vehicle: saline) was 6 of 6, the survivor count (dose: 6.25 mg/kg/injection, schedule: Q01DX009 (ip), vehicle: saline) was 6 of 6 and the survivor count (dose: 25.0 mg/kg/injection, schedule: Q01DX009 (ip), vehicle: saline) was 5 of 6 and 6 of 6. For the same compound, the survivor count (dose: 100.0 mg/kg/injection, schedule: Q01DX009 (ip), vehicle: saline) was 3 of 6, the survivor count (dose: 200.0 mg/kg/injection, schedule: Q01DX009 (ip), vehicle: saline) was 0 of 6 and the survivor count (dose: 200.0 mg/kg/injection, schedule: Q04DX003 (ip), vehicle: saline) was 3 of 6. The survivor count (dose: 400.0 mg/kg/injection, schedule: Q04DX003 (ip), vehicle: saline) was 0 of 6.

`CC1(C)OC2C=CC3C(OC(=O)C3(C)Cl)C2O1` (stereo not given) was tested, and the T/C (dose: 200.0 mg/kg/injection, schedule: Q04DX002 (ip), vehicle: saline with Tween-80) was 128 % of control.

For `CCCCC(=O)OCC(=O)[C@]1(O)Cc2c(O)c3c(c(O)c2[C@@H](OC2CC(NC(=O)C(F)(F)F)C(O)C(C)O2)C1)C(=O)c1c(OC)cccc1C3=O` (stereo not given in full), the T/C (dose: 5.0 mg/kg/injection, schedule: Q01DX004 (ip), vehicle: other) was 135 % of control, the T/C (dose: 15.1 mg/kg/injection, schedule: Q04DX003 (ip), vehicle: other) was 146 % of control and the survivor count (dose: 40.0 mg/kg/injection, schedule: Q01DX004 (ip), vehicle: other) was 10 of 10. For the same compound, the survivor count (dose: 50.0 mg/kg/injection, schedule: Q01DX004 (ip), vehicle: other) was 10 of 10, the survivor count (dose: 60.0 mg/kg/injection, schedule: Q01DX004 (ip), vehicle: other) was 6 of 10 and 10 of 10 and the survivor count (dose: 60.0 mg/kg/injection, schedule: Q01DX004 (ip), vehicle: saline with Tween-80) was 8 of 8.

`[O-][n+]1c(CCl)nc2cccc3c2c1-c1ccccc1-3` was tested, and the T/C [2] was 131 [6 of 8 alive] and 147 % of control, the T/C [3] was 133 % of control and the survivor count [4] was 1 of 6.

In the case of `BrCCC[P+](c1ccccc1)(c1ccccc1)c1ccccc1`, the T/C (dose: 3.13 mg/kg/injection, schedule: Q01DX009 (ip), vehicle: saline with Tween-80) is reported as 131 % of control, the T/C (dose: 6.25 mg/kg/injection, schedule: Q01DX009 (ip), vehicle: saline with Tween-80) is reported as 145 % of control and the T/C (dose: 7.5 mg/kg/injection, schedule: Q01DX010 (ip), vehicle: saline) is reported as 127 % of control. For the same compound, the survivor count (dose: 30.0 mg/kg/injection, schedule: Q01DX009 (ip), vehicle: saline) was 5 of 6, the survivor count (dose: 30.0 mg/kg/injection, schedule: Q01DX010 (ip), vehicle: saline) was 6 of 6 and the survivor count (dose: 60.0 mg/kg/injection, schedule: Q01DX010 (ip), vehicle: saline) was 0 of 6.

`N#CCCCCCl` was tested, and the survivor count (dose: 200.0 mg/kg/injection, schedule: Q01DX001 (ip), vehicle: saline) was 2 of 6 and the survivor count (dose: 400.0 mg/kg/injection, schedule: Q01DX001 (ip), vehicle: saline) was 0 of 6.

With `CC(=O)n1ncc2ccc([N+](=O)[O-])cc21` the T/C (dose: 50.0 mg/kg/injection, schedule: Q01DX009 (ip), vehicle: water) was 125 % of control.
